From the supplement of paper PMC10849652 come the findings set out here.

Amino acid sequences for entries named in this document (tags omitted). A change or cut given only in a name is not applied to a line headed by its entry.
UniProt P02750: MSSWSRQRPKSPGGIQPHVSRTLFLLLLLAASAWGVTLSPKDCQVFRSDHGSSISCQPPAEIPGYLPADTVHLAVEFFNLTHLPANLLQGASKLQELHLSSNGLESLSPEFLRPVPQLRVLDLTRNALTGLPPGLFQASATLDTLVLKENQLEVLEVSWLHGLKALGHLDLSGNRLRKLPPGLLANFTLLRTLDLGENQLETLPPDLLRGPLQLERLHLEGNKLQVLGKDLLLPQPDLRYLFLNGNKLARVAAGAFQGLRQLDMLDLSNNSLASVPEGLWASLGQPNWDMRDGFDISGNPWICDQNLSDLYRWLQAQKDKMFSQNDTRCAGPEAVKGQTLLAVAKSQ
UniProt O15243: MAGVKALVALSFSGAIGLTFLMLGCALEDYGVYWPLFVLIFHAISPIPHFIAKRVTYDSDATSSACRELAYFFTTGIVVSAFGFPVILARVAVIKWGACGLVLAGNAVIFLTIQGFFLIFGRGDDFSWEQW
UniProt Q5T7N2: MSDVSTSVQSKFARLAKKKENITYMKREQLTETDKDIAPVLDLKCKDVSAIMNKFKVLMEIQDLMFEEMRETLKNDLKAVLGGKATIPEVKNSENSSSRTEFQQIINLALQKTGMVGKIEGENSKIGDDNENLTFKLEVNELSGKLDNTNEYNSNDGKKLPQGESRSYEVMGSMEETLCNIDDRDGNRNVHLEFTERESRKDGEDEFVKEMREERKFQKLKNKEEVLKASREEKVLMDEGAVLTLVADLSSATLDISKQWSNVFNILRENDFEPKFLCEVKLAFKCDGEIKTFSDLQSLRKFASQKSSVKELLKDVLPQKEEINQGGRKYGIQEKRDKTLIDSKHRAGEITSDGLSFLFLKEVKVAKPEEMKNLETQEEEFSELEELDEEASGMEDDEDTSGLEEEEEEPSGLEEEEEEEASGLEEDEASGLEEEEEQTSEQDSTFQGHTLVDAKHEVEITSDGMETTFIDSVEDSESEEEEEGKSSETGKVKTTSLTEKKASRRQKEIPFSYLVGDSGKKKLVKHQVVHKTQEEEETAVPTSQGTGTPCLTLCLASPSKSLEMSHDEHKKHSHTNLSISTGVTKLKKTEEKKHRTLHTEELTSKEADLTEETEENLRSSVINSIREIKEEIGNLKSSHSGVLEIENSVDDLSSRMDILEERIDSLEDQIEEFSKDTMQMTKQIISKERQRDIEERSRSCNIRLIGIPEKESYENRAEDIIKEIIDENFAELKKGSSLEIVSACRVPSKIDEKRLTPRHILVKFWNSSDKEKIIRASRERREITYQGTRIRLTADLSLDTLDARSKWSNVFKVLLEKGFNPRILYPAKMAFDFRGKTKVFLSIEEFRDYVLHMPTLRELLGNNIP
UniProt Q53QV2: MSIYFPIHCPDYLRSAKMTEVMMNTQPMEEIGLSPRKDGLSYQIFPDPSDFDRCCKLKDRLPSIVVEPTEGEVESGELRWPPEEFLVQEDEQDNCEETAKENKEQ
UniProt P06858: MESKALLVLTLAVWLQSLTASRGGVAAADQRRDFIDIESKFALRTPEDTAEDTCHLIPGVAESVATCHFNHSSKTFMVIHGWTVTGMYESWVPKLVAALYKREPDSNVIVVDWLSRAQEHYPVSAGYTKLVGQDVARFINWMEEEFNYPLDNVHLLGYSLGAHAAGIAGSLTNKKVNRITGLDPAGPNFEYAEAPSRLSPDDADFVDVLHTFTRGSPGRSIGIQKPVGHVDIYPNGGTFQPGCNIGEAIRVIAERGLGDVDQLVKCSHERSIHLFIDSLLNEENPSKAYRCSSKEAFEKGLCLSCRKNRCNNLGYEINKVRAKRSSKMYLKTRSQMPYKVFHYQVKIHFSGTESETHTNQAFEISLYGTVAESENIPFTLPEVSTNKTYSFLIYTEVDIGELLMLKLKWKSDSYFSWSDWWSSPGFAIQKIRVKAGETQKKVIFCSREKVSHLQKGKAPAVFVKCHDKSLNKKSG
UniProt Q52LA3: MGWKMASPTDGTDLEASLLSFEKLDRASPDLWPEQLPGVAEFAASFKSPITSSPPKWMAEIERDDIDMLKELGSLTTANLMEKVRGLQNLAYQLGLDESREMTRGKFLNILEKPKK
UniProt Q9Y234: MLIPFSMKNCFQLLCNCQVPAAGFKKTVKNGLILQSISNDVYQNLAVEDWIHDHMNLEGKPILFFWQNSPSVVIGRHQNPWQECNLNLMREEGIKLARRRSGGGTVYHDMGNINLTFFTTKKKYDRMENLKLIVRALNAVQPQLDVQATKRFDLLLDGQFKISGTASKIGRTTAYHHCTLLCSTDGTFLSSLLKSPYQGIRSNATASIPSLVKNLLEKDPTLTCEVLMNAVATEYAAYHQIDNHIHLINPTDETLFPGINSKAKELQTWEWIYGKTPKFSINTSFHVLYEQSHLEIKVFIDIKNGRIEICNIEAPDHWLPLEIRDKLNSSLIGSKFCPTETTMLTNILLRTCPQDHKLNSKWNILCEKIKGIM
UniProt P23490: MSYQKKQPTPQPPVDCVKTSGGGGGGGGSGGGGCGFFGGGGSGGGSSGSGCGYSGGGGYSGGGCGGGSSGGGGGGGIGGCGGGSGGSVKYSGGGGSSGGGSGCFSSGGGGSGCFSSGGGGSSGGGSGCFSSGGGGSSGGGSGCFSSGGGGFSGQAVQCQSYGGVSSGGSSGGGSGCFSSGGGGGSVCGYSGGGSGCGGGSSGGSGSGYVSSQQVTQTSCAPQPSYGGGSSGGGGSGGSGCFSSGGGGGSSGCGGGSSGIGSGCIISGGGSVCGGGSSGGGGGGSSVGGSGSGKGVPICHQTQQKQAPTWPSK
UniProt Q3ZCW2: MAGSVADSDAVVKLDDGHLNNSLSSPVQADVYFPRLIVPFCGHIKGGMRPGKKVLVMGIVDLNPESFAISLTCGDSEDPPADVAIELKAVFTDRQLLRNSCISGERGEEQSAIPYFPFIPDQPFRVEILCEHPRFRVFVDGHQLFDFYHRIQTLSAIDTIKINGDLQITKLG
UniProt Q6ZUX7: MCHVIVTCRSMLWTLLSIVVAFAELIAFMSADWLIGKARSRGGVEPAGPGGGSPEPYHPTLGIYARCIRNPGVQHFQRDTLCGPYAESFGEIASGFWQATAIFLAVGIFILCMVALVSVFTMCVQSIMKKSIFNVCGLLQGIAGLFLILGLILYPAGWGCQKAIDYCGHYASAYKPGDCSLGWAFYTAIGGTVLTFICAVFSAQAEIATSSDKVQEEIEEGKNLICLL
UniProt Q643R3: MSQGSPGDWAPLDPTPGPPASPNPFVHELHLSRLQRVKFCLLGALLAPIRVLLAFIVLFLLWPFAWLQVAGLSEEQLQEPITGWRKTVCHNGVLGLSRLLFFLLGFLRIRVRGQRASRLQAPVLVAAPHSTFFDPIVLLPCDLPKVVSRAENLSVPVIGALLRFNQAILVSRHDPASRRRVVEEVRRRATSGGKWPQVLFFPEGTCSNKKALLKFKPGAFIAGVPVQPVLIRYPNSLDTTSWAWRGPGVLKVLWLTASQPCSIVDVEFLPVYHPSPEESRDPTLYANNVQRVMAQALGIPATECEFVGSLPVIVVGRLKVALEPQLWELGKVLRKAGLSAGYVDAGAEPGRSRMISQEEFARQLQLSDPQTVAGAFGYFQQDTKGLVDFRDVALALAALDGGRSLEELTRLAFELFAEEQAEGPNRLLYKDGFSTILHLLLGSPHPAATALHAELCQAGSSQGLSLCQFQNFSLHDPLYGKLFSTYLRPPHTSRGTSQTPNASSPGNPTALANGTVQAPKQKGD
UniProt Q15334: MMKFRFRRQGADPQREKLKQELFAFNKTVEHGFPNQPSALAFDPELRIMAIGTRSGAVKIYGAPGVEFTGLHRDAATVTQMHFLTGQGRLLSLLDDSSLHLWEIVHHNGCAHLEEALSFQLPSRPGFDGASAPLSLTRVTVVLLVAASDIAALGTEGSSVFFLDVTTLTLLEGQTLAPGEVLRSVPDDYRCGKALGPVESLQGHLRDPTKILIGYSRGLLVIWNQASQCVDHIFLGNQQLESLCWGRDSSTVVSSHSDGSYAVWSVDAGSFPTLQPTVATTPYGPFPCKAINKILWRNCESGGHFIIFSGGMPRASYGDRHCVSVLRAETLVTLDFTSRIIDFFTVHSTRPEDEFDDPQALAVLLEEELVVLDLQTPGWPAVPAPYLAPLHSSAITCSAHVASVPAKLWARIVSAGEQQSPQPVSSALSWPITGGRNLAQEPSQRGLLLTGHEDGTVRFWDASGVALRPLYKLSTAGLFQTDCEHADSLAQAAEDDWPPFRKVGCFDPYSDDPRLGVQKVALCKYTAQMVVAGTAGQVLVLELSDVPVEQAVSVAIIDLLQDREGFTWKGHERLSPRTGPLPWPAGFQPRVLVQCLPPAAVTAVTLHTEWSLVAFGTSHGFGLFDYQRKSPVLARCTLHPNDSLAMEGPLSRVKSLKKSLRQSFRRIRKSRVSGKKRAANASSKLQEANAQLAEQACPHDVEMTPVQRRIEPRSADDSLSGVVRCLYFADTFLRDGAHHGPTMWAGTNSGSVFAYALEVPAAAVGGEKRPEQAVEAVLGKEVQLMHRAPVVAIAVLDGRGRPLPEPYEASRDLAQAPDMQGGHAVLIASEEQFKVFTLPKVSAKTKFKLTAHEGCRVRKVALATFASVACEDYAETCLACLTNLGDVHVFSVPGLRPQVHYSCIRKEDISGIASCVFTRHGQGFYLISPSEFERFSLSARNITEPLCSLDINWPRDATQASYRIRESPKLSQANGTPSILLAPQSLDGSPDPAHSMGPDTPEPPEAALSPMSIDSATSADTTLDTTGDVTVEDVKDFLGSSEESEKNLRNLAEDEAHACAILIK
UniProt O75427: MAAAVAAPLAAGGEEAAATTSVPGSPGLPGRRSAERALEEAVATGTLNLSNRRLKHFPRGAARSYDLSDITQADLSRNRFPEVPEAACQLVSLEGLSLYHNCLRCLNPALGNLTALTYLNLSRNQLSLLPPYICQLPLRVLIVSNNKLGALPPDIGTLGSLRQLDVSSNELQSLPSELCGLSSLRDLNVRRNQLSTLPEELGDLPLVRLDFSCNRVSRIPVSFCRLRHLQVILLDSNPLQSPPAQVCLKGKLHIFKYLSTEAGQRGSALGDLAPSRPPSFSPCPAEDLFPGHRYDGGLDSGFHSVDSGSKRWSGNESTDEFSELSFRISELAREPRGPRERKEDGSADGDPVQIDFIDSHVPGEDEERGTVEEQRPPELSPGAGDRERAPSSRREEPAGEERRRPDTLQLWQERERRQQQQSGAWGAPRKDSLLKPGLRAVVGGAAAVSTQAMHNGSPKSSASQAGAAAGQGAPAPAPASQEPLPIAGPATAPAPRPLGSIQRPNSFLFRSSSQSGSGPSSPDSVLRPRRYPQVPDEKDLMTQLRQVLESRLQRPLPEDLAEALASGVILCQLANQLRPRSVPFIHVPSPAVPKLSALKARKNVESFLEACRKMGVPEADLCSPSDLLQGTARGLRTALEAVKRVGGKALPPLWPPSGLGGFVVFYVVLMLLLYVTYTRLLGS
UniProt Q08380: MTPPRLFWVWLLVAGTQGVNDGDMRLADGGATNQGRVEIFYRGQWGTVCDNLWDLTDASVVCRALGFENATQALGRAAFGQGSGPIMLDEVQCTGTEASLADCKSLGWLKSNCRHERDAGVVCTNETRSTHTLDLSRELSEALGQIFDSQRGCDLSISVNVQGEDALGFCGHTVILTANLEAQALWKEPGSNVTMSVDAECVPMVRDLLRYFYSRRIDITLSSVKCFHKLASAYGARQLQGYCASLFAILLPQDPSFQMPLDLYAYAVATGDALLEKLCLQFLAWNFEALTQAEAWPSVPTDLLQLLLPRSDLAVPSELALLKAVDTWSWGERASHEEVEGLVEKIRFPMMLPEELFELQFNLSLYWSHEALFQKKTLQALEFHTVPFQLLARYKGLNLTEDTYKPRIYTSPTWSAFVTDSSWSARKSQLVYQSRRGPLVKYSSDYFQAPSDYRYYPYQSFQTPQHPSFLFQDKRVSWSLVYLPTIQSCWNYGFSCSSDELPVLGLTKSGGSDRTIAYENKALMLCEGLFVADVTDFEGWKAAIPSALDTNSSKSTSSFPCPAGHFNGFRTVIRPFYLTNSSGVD
UniProt A6NK58: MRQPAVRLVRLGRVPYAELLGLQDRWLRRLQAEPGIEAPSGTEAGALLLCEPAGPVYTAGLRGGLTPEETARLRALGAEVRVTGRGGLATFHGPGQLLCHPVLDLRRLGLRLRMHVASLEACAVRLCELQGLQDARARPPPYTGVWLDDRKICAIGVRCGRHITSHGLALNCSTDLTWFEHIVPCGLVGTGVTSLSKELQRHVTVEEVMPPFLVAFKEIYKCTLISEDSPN

The other results are listed elsewhere or left out.

Compound in the first test: O=C(O)c1ccc2c(c1)nc(Nc1cccc(Cl)c1)c1ccncc12 [silmitasertib]
Briefly: log2 fold change, soluble protein after heating vs DMSO (PISA); higher = thermal stabilisation; K562 cells, 10 uM, 30 min; active = over 0.2 and 3.5 SD of the protein, either way, in both replicates (recomputed). The method in brief:
(§1)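 K562 cells (2×10^6 cells/mL) were treated with 10 μM compound for 30 min, and aliquots were heated for 3 min over 48°C-58°C. Pooled aliquots were extracted in PBS with 0.5% NP-40 at 4°C, and the supernatant after 21,000xg for 90 min was measured by TMTpro 16plex LC-MS/MS with channel sums equalised. Reported thermal stability, relative to control samples and from duplicates, is a log2 fold change.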
Consider LRG1 (UniProt P02750), for which the log2 fold change is inactive: -0.061.

For LEPROT (UniProt O15243), the log2 fold change is inactive: 0.005.

For the target L1TD1 (UniProt Q5T7N2), the log2 fold change was inactive: -0.308. As for LAMB2 (UniProt P55268), the log2 fold change was inactive: -0.021. Still for that read-out and setting: then LRP1 (UniProt Q07954), with inactive: 0.209; and LBH (UniProt Q53QV2), with inactive: -0.011.

As for LPL (UniProt P06858), the log2 fold change was inactive: -0.03. For the target LIN52 (UniProt Q52LA3), the log2 fold change is inactive: -0.045. Turning to LIPT1 (UniProt Q9Y234), the log2 fold change was inactive: 0.282.

Consider LOR (UniProt P23490), for which the log2 fold change is inactive: 0.028. Regarding LGALSL (UniProt Q3ZCW2), the log2 fold change was inactive: 0.191.

Compound in the next test: O=C1NC(=O)C(c2cnc3ccccn23)=C1c1cn2c3c(cc(F)cc13)CN(C(=O)N1CCCCC1)CC2
Described as above. The essentials: as §1
For LHFPL2 (UniProt Q6ZUX7), the log2 fold change was inactive: -0.036. As for LRG1 (UniProt P02750), the log2 fold change is inactive: 0.193. Regarding LEPROT (UniProt O15243), the log2 fold change was inactive: 0.261.

With LPCAT4 (UniProt Q643R3), the log2 fold change is inactive: 0.205.

Turning to LLGL1 (UniProt Q15334), the log2 fold change was inactive: 0.068. Consider LRP1 (UniProt Q07954), for which the log2 fold change is inactive: -0.018. Regarding LRCH4 (UniProt O75427), the log2 fold change was inactive: -0.062. For the target LBH (UniProt Q53QV2), the log2 fold change is inactive: 0.003. Same read-out and setting: to LGALS3BP (UniProt Q08380) belongs inactive: 0.048; to LIPT2 (UniProt A6NK58), inactive: 0.113; to LOR (UniProt P23490), inactive: -0.187.
